This is an account of results in paper PMC4012723.

The chains behind the UniProt entries cited, without tags or fusion partners.
UniProt Q9BXW9: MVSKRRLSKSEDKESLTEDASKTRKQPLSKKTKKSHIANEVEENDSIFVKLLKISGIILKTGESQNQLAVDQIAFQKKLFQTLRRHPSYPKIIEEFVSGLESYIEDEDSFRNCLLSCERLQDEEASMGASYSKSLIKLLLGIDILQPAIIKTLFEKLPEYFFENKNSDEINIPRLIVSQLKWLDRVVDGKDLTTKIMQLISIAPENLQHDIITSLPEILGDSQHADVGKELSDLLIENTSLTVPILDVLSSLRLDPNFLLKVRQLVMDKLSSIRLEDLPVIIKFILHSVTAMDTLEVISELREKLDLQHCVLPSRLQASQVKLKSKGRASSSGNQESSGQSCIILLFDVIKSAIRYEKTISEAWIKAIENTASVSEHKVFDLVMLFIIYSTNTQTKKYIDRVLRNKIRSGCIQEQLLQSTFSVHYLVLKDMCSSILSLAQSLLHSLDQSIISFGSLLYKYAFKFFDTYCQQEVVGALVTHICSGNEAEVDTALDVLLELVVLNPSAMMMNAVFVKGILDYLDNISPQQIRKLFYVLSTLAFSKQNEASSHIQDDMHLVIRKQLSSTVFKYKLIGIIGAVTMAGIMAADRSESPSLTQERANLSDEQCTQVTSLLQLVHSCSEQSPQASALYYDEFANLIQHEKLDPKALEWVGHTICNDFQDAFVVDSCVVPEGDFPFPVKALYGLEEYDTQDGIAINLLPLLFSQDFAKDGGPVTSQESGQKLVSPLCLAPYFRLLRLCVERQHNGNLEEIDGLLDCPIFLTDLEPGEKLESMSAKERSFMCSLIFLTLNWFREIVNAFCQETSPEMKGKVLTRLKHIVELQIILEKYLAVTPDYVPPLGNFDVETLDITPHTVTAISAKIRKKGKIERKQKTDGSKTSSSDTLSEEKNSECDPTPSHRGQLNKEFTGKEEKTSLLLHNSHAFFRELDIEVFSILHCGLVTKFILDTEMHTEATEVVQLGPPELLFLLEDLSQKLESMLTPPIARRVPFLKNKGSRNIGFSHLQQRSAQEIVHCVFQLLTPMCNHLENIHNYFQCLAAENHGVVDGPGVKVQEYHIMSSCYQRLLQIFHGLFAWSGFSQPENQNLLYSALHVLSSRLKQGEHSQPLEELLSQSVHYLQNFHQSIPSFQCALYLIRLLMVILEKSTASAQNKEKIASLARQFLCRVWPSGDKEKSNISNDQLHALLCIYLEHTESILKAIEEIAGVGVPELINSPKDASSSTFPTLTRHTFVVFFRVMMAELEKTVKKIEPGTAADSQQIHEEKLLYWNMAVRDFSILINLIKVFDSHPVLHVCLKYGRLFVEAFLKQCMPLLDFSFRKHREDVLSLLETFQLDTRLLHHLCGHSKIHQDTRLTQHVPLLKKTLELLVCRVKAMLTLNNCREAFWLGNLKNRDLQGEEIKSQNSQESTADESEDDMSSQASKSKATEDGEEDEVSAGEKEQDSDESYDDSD

No constants are given. Whether binding was seen depends on the method and setting. In cells and extracts the contact can be indirect. Here binding means that the protein was enriched with, or labelled near, the bait; the list need not be complete.

The target of the test is Flag-wild type (wt) FANCD2 (UniProt Q9BXW9). Kind of test: affinity purification with mass spectrometry; Flag-IP eluates of CRL-1790 cells transfected with Flag-wtFANCD2 or Flag-mtFANCD2, 8-16% gradient SDS-PAGE, extra band slightly larger than 100 kDa excised, trypsin, MS/MS.

B1: endogenous MCM3 (protein, UniProt P25205 1-808)
chain: MAGTVVLDDVELREAQRDYLDFLDDEEDQGIYQSKVRELISDNQYRLIVNVNDLRRKNEKRANRLLNNAFEELVAFQRALKDFVASIDATYAKQYEEFYVGLEGSFGSKHVSPRTLTSCFLSCVVCVEGIVTKCSLVRPKVVRSVHYCPATKKTIERRYSDLTTLVAFPSSSVYPTKDEENNPLETEYGLSVYKDHQTITIQEMPEKAPAGQLPRSVDVILDDDLVDKAKPGDRVQVVGTYRCLPGKKGGYTSGTFRTVLIACNVKQMSKDAQPSFSAEDIAKIKKFSKTRSKDIFDQLAKSLAPSIHGHDYVKKAILCLLLGGVERDLENGSHIRGDINILLIGDPSVAKSQLLRYVLCTAPRAIPTTGRGSSGVGLTAAVTTDQETGERRLEAGAMVLADRGVVCIDEFDKMSDMDRTAIHEVMEQGRVTIAKAGIHARLNARCSVLAAANPVYGRYDQYKTPMENIGLQDSLLSRFDLLFIMLDQMDPEQDREISDHVLRMHRYRAPGEQDGDAMPLGSAVDILATDDPNFSQEDQQDTQIYEKHDNLLHGTKKKKEKMVSAAFMKKYIHVAKIIKPVLTQESATYIAEEYSRLRSQDSMSSDTARTSPVTARTLETLIRLATAHAKARMSKTVDLQDAEEAVELVQYAYFKKVLEKEKKRKKRSEDESETEDEEEKSQEDQEQKRKRRKTRQPDAKDGDSYDPYDFSDTEEEMPQVHTPKTADSQETKESQKVELSESRLKAFKVALLDVFREAHAQSIGMNRLTESINRDSEEPFSSVEIQAALSKMQDDNQVMVSEGIIFLI
As for B1, the binding result is listed as “binds”.
